Reference: paper PMC2847038 (Hippocampus, 2010)

System: Ki-67 positive progenitor cells in the dentate gyrus
Conditions: 1 mg/kg daily, 8 days, alone or combined with VEx

## Cc1c(C(=O)NN2CCCCC2)nn(-c2ccc(Cl)cc2Cl)c1-c1ccc(I)cc1 [AM251]
  cellular expression of Ki-67 within the hilus of the dentate gyrus: Neither treatment, alone nor in combination, had any effect
